Reference: PubChem BioAssay AID1259254 (NCATS, 2017)
Screen: 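Gene knock-downs that lead to re-replication, shown by excess G2 DNA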 (primary screen). System: human HCT116 colorectal cancer cells. Reagent: single siRNA against human genes. Duration: 3 days. Detection: 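Imaged Hoechst DNA stain sorts each cell into a cycle phase by DNA amount; per plate, G2 fraction set to 0% for non-targeting and 100% for GMNN siRNA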. Direction: G2 robust z-score: higher = more G2 cells, more excess DNA replication. Active means: 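Active siRNAs have a G2 robust z of 5 or more median absolute deviations over the median, which in these data means about 38% or higher of GMNN control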.
The whole screen tested about 59,000 reagents; below is an unselected part. About 1,550 of them (2.6%) were called active. 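G2 share is only a proxy for re-replication; each gene was hit by three separate siRNAs, and active genes were retested.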 The numbers tell different reagents against one gene apart. Not all columns of the deposit are shown. Reagent sequences are not shown. The record does not give: the amount of reagent.

The first 6 records as a preview:
| Gene | reagent no. | G2 robust z-score | activity call |
| --- | --- | --- | --- |
| ONECUT3 | 1 | -0.617 | inactive |
| ONECUT3 | 2 | 0.413 | inactive |
| ONECUT3 | 3 | 2.09 | inactive |
| CCDC144BP | 1 | 1.26 | inactive |
| CCDC144BP | 2 | -0.911 | inactive |
| CCDC144BP | 3 | 0.932 | inactive |

The listing, repeating the preview:
| Gene | reagent no. | G2 robust z-score | activity call |
| --- | --- | --- | --- |
| ONECUT3 | 1 | -0.617 | inactive |
| ONECUT3 | 2 | 0.413 | inactive |
| ONECUT3 | 3 | 2.09 | inactive |
| CCDC144BP | 1 | 1.26 | inactive |
| CCDC144BP | 2 | -0.911 | inactive |
| CCDC144BP | 3 | 0.932 | inactive |
| TICRR | 1 | 5.23 | active |
| TICRR | 2 | -0.817 | inactive |
| TICRR | 3 | -0.915 | inactive |
| DCAF7 | 1 | 3.81 | inactive |
| DCAF7 | 2 | -0.0135 | inactive |
| DCAF7 | 3 | -0.00432 | inactive |
| SPAG7 | 1 | -0.675 | inactive |
| SPAG7 | 2 | -0.231 | inactive |
| SPAG7 | 3 | 1.8 | inactive |
| TBR1 | 1 | 0.856 | inactive |
| TBR1 | 2 | 0.944 | inactive |
| TBR1 | 3 | 0.144 | inactive |
| NYX | 1 | -1.3 | inactive |
| NYX | 2 | -0.486 | inactive |
| NYX | 3 | -0.98 | inactive |
| ACSF2 | 1 | 0.466 | inactive |
| ACSF2 | 2 | -0.251 | inactive |
| ACSF2 | 3 | -0.849 | inactive |
| HPGDS | 1 | 0.159 | inactive |
| HPGDS | 2 | 5.98 | active |
| HPGDS | 3 | 1.39 | inactive |
| SATB1 | 1 | 1.07 | inactive |
| SATB1 | 2 | -0.169 | inactive |
| SATB1 | 3 | -0.33 | inactive |
| SYNJ2BP | 1 | 0.322 | inactive |
| SYNJ2BP | 2 | 0.0437 | inactive |
| SYNJ2BP | 3 | -0.846 | inactive |
| PNKD | 1 | 4.79 | inactive |
| PNKD | 2 | -0.667 | inactive |
| PNKD | 3 | 0.48 | inactive |
| CRLF3 | 1 | -1.41 | inactive |
| CRLF3 | 2 | 2.01 | inactive |
| CRLF3 | 3 | -0.063 | inactive |
| RIMS1 | 1 | 0.177 | inactive |
| RIMS1 | 2 | -1.06 | inactive |
| RIMS1 | 3 | 0.542 | inactive |
| ELOVL4 | 1 | 1.68 | inactive |
| ELOVL4 | 2 | -0.722 | inactive |
| ELOVL4 | 3 | -0.838 | inactive |
| HOXC5 | 1 | 1.96 | inactive |
| HOXC5 | 2 | 1.43 | inactive |
| HOXC5 | 3 | 0.237 | inactive |
| TRIM52 | 1 | 2.58 | inactive |
| TRIM52 | 2 | 0.213 | inactive |
| TRIM52 | 3 | 0.354 | inactive |
| UBXN1 | 1 | -0.123 | inactive |
| UBXN1 | 2 | -0.305 | inactive |
| UBXN1 | 3 | -0.0788 | inactive |
| USP4 | 1 | 0.0569 | inactive |
| USP4 | 2 | 0.0125 | inactive |
| USP4 | 3 | -0.609 | inactive |
| CAPN12 | 1 | 0.832 | inactive |
| CAPN12 | 2 | -0.308 | inactive |
| CAPN12 | 3 | 0.614 | inactive |
| TSGA10IP | 1 | 1.3 | inactive |
| TSGA10IP | 2 | 0.29 | inactive |
| TSGA10IP | 3 | -0.904 | inactive |
| TNFRSF8 | 1 | -0.135 | inactive |
| TNFRSF8 | 2 | 1.12 | inactive |
| TNFRSF8 | 3 | -0.809 | inactive |
| PLA2G2E | 1 | -0.698 | inactive |
| PLA2G2E | 2 | 3.92 | inactive |
| PLA2G2E | 3 | -0.398 | inactive |
